PubChem BioAssay AID1224828 – NIAID, 2016

Purpose: 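Knock-downs that increase or decrease LPS-induced p65 nuclear translocation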 (primary screen)
System: mouse RAW264.7 G9 macrophage reporter cells (GFP-p65, Tnf promoter-mCherry)
Reagent: siRNA pool against mouse genes, 100 nM
Time to read-out: 2 days siRNA transfection, then 40 min LPS before fixation
Treatment: LPS (Salmonella minnesota R595) at 10 ng/ml
Read-out: 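Imaged p65 nuclear translocation ratio, normalised to the plate median, converted to robust z-scores and averaged across two replicates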
Direction: p65 translocation robust z-score: higher = more nuclear NF-kappaB p65 after LPS than the plate median; nuclear/cytoplasmic p65 ratio: higher = more nuclear NF-kappaB p65
Active means: 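Active if robust z is above 3.3 (negative regulators) or below -1.56, the Tlr4 control median (positive regulators); activity score 50 or more; control wells not called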
Calls: active = hit (p65 shift raised or lowered); inactive = no clear change
The deposit covers about 17,000 reagents; shown is a part drawn at random. In the full data, 762 (4.5%) got an active call. 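Active calls include both raised and lowered p65 entry, mostly lowered; wells with fewer than 50 cells lack a z-score.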 Raw values vary from plate to plate and are shown uncorrected. Some reagents were tested in more than one well and are listed for each. Reagent sequences are not shown.

no.	target	PubChem SID	p65 translocation robust z-score	nuclear/cytoplasmic p65 ratio, rep 1	nuclear/cytoplasmic p65 ratio, rep 2	low cell count flag	call
1	Cyp2d10 (cytochrome P450, family 2, subfamily d, polypeptide 10)	SID315466234	-0.07	1.51	1.84	enough cells to score	inactive
2	Flywch1 (FLYWCH-type zinc finger 1)	SID315478348	0.87	1.52	1.53	enough cells to score	inactive
3	Epyc (epiphycan)	SID315466395	0.31	1.51	1.39	enough cells to score	inactive
4	Tut4 (terminal uridylyl transferase 4)	SID315478793		1.37	1.05	fewer than 50 cells per well; well left out of scoring	inactive
5	Xpo5 (exportin 5)	SID315474519	-0.83	1.35	1.12	enough cells to score	inactive
6	Slamf9 (SLAM family member 9)	SID315476128	1.3	1.64	1.35	enough cells to score	inactive
7	Plcd3 (phospholipase C, delta 3)	SID315474556	-0.31	1.34	1.18	enough cells to score	inactive
8	Cope (coatomer protein complex, subunit epsilon)	SID315471973	-0.33	1.51	1.75	enough cells to score	inactive
9	Casp1 (caspase 1)	SID315465766	0.14	1.68	1.6	enough cells to score	inactive
10	Cldn14 (claudin 14)	SID315471377	0.78	1.65	1.41	enough cells to score	inactive
11	Or8g23 (olfactory receptor family 8 subfamily G member 23)	SID315480113	0.19	1.45	1.27	enough cells to score	inactive
12	Nes (nestin)	SID315468133	-0.05	1.74	1.61	enough cells to score	inactive
13	Acsm5 (acyl-CoA synthetase medium-chain family member 5)	SID315480970	0	1.64	1.73	enough cells to score	inactive
14	Tmem63a (transmembrane protein 63a)	SID315477555	0.51	1.36	1.93	enough cells to score	inactive
15	Khdc4 (KH domain containing 4, pre-mRNA splicing factor)	SID315474903	0.71	1.45	1.6	enough cells to score	inactive
16	Cacng5 (calcium channel, voltage-dependent, gamma subunit 5)	SID315477142	0.38	1.75	1.74	enough cells to score	inactive
17	Rhbdd1 (rhomboid domain containing 1)	SID315475396	0.09	1.27	1.35	enough cells to score	inactive
18	Nr1h4 (nuclear receptor subfamily 1, group H, member 4)	SID315469070	0.61	1.54	1.49	enough cells to score	inactive
19	Sprr4 (small proline-rich protein 4)	SID315478717	-0.13	1.32	1.22	enough cells to score	inactive
20	Thap3 (THAP domain containing, apoptosis associated protein 3)	SID315473923		1.35	1.14	fewer than 50 cells per well; well left out of scoring	inactive
21	Elac2 (elaC ribonuclease Z 2)	SID315473587	0.09	1.54	1.32	enough cells to score	inactive
22	Psmd3 (proteasome (prosome, macropain) 26S subunit, non-ATPase, 3)	SID315469859		1.41	1.21	fewer than 50 cells per well; well left out of scoring	inactive
23	Rae1 (ribonucleic acid export 1)	SID315472579	-1.06	1.22	1.11	enough cells to score	inactive
24	Pspc1 (paraspeckle protein 1)	SID315472561	0.17	1.52	1.24	enough cells to score	inactive
25	Tap2 (transporter 2, ATP-binding cassette, sub-family B (MDR/TAP))	SID315469581	0.1	1.47	1.6	enough cells to score	inactive
26	Alkbh5 (alkB homolog 5, RNA demethylase)	SID315480766		1.3	1.72	fewer than 50 cells per well; well left out of scoring	inactive
27	Tmod1 (tropomodulin 1)	SID315469752		1.42	1.06	fewer than 50 cells per well; well left out of scoring	inactive
28	Arl4a (ADP-ribosylation factor-like 4A)	SID315465509	0	1.69	1.55	enough cells to score	inactive
29	Anxa5 (annexin A5)	SID315465423	0.15	1.69	1.59	enough cells to score	inactive
30	Faf1 (Fas-associated factor 1)	SID315466618	0.35	1.52	1.4	enough cells to score	inactive

Reprinted from the entries so far, 9 entries:
no.	target	PubChem SID	p65 translocation robust z-score	nuclear/cytoplasmic p65 ratio, rep 1	nuclear/cytoplasmic p65 ratio, rep 2	low cell count flag	call
8	Cope (coatomer protein complex, subunit epsilon)	SID315471973	-0.33	1.51	1.75	enough cells to score	inactive
9	Casp1 (caspase 1)	SID315465766	0.14	1.68	1.6	enough cells to score	inactive
10	Cldn14 (claudin 14)	SID315471377	0.78	1.65	1.41	enough cells to score	inactive
11	Or8g23 (olfactory receptor family 8 subfamily G member 23)	SID315480113	0.19	1.45	1.27	enough cells to score	inactive
12	Nes (nestin)	SID315468133	-0.05	1.74	1.61	enough cells to score	inactive
13	Acsm5 (acyl-CoA synthetase medium-chain family member 5)	SID315480970	0	1.64	1.73	enough cells to score	inactive
14	Tmem63a (transmembrane protein 63a)	SID315477555	0.51	1.36	1.93	enough cells to score	inactive
15	Khdc4 (KH domain containing 4, pre-mRNA splicing factor)	SID315474903	0.71	1.45	1.6	enough cells to score	inactive
16	Cacng5 (calcium channel, voltage-dependent, gamma subunit 5)	SID315477142	0.38	1.75	1.74	enough cells to score	inactive

More entries:
no.	target	PubChem SID	p65 translocation robust z-score	nuclear/cytoplasmic p65 ratio, rep 1	nuclear/cytoplasmic p65 ratio, rep 2	low cell count flag	call
31	Eipr1 (EARP complex and GARP complex interacting protein 1)	SID315481754	0.35	1.42	1.49	enough cells to score	inactive
32	Asf1a (anti-silencing function 1A histone chaperone)	SID315472419	0.44	1.67	1.57	enough cells to score	inactive
33	Star (steroidogenic acute regulatory protein)	SID315469482	0.98	1.64	1.74	enough cells to score	inactive
34	Pou3f3 (POU domain, class 3, transcription factor 3)	SID315468634	0.48	1.59	1.45	enough cells to score	inactive
35	Pcdhb22 (protocadherin beta 22)	SID315476005	-1.42	1.24	1.25	enough cells to score	inactive
36	Psbpc1 (retired record)	SID315477051	-0.64	1.27	1.16	enough cells to score	inactive
37	Chrnd (cholinergic receptor, nicotinic, delta polypeptide)	SID315465261	-1.2	1.18	1.23	enough cells to score	inactive
38	Mdh1 (malate dehydrogenase 1, NAD (soluble))	SID315467964		1.72	1.58	fewer than 50 cells per well; well left out of scoring	inactive
39	Galnt7 (polypeptide N-acetylgalactosaminyltransferase 7)	SID315476706	2.16	1.89	1.78	enough cells to score	inactive
40	Gm10101 (predicted gene 10101)	SID315481478		1.29	1.75	fewer than 50 cells per well; well left out of scoring	inactive
41	Adap2 (ArfGAP with dual PH domains 2)	SID315478063	1.05	1.7	2.01	enough cells to score	inactive
42	Tonsl (tonsoku-like, DNA repair protein)	SID315474621	-0.48	1.56	1.53	enough cells to score	inactive
43	Zfp367 (zinc finger protein 367)	SID315479403	0.67	1.57	1.27	enough cells to score	inactive
44	Ca14 (carbonic anhydrase 14)	SID315470190	-0.51	1.5	1.72	enough cells to score	inactive
45	Helz2 (helicase with zinc finger 2, transcriptional coactivator)	SID315478683	-0.98	1.47	1.46	enough cells to score	inactive
46	Parg (poly (ADP-ribose) glycohydrolase)	SID315470405	0.43	1.61	1.29	enough cells to score	inactive
47	Rps6ka5 (ribosomal protein S6 kinase A5)	SID315474671	0.94	1.84	1.49	enough cells to score	inactive
48	Oaz3 (ornithine decarboxylase antizyme 3)	SID315471106	1.38	1.6	1.62	enough cells to score	inactive
49	Bag6 (BCL2-associated athanogene 6)	SID315478364	1.54	1.87	2.04	enough cells to score	inactive
50	Cd74	SID315467419	-0.32	1.34	1.38	enough cells to score	inactive
51	Lrrk2 (leucine-rich repeat kinase 2)	SID315472609		1.85	1.44	fewer than 50 cells per well; well left out of scoring	inactive
52	Lrrk2 (leucine-rich repeat kinase 2)	SID315472609		1.35	1.23	fewer than 50 cells per well; well left out of scoring	inactive
53	4930515G01Rik (RIKEN cDNA 4930515G01 gene)	SID315473141	-1.03	1.14	1.18	enough cells to score	inactive
54	Sit1 (suppression inducing transmembrane adaptor 1)	SID315471220	0.04	1.38	1.28	enough cells to score	inactive
55	Nudcd2 (NudC domain containing 2)	SID315470994	-0.8	1.47	1.64	enough cells to score	inactive
56	Aste1 (asteroid homolog 1)	SID315472528	-0.34	1.49	1.4	enough cells to score	inactive
57	Zfp143 (zinc finger protein 143)	SID315469478	-0.01	1.6	1.42	enough cells to score	inactive
58	Gadd45a (growth arrest and DNA-damage-inducible 45 alpha)	SID315466288	-0.75	1.39	1.22	enough cells to score	inactive
59	Fabp3 (fatty acid binding protein 3, muscle and heart)	SID315466612	0.31	1.58	1.35	enough cells to score	inactive
